Data reported in the supplement of paper PMC12873370.
Several values for one entry are separate records, joined by “and”; a condition that tells them apart may be missing. Equal entries are not always repeated. Some of the results follow. Single values are uncertain, as repeats are few or missing.

Columns and labels:
[1] = tested on: MEPP (mouse ovarian epithelium Trp53/Pten KO); assay: cell viability relative to untreated (fraction); higher = less growth inhibition; details: 5 µM; 3 days
[2] = tested on: PREPP (mouse prostate epithelium Trp53/Pten KO); assay: as above; details: 5 µM; 3 days

C[C@@H]1NC(=O)[C@@H](N)CNC(=O)[C@H](C2CCNC(=N)N2)NC(=O)/C(=C/NC(N)=O)NC(=O)[C@H](CNC(=O)CC(N)CCCN)NC1=O.N=C1NCCC([C@@H]2NC(=O)/C(=C/NC(N)=O)NC(=O)[C@H](CNC(=O)CC(N)CCCN)NC(=O)[C@H](CO)NC(=O)[C@@H](N)CNC2=O)N1 (some centres not stated)
cell viability [1]: 1.31 | cell viability [2]: 1.05

O=C(O)C1CCCCN1 (configuration not stated)
cell viability [1]: 1.07 and 0.996 | cell viability [2]: 0.868 and 0.899

NC(=O)CCC(N)C(=O)O (configuration not stated)
cell viability [1]: 1.18 | cell viability [2]: 1.05

CCOC(=O)c1cc(O)c(O)c(O)c1
cell viability [1]: 1.22 | cell viability [2]: 0.807

CC(C)=CCC[C@](C)(O[C@@H]1O[C@H](CO)[C@@H](O)[C@H](O)[C@H]1O)[C@H]1CC[C@]2(C)[C@@H]1[C@H](O)C[C@@H]1[C@@]3(C)CC[C@H](O)C(C)(C)[C@@H]3[C@@H](O[C@@H]3O[C@H](CO)[C@@H](O)[C@H](O)[C@H]3O[C@@H]3O[C@@H](C)[C@H](O)[C@@H](O)[C@H]3O)C[C@]12C
cell viability [1]: 0.995 | cell viability [2]: 1.11

Cc1nc2n(c(=O)c1CCN1CCC(c3noc4cc(F)ccc34)CC1)CCCC2O (configuration not stated)
cell viability [1]: 1.17 | cell viability [2]: 1.01

CC(C)[C@H](NC(=O)CN)C(=O)O
cell viability [1]: 0.867 | cell viability [2]: 1.24

CCCCCOC(=O)Nc1nc(=O)n([C@@H]2O[C@H](C)[C@@H](O)[C@H]2O)cc1F
cell viability [1]: 1.04 | cell viability [2]: 0.981

O=C(O)/C=C/c1ccc(O)cc1
cell viability [1]: 0.868 | cell viability [2]: 1.36

CN[C@@H]1[C@H](O[C@H]2[C@H](O[C@H]3[C@H](O)[C@@H](O)[C@H](N=C(N)N)[C@@H](O)[C@@H]3N=C(N)N)O[C@@H](C)[C@]2(O)C=O)O[C@@H](CO)[C@H](O)[C@H]1O
cell viability [1]: 0.883 | cell viability [2]: 0.91

C[C@H](Cc1cc2c(c(C(N)=O)c1)N(CCCO)CC2)NCCOc1ccccc1OCC(F)(F)F
cell viability [1]: 1.21 | cell viability [2]: 0.97

CO[C@H]1C(=O)[C@]2(C)[C@@H](OC)C[C@H]3OC[C@@]3(OC(C)=O)[C@H]2[C@H](OC(=O)c2ccccc2)[C@]2(O)C[C@H](OC(=O)[C@H](O)[C@@H](NC(=O)OC(C)(C)C)c3ccccc3)C(C)=C1C2(C)C
cell viability [1]: 0.563 | cell viability [2]: 0.636

CC1(C)CCC[C@](C)([C@H]2CC[C@]3(C)[C@@H]2[C@H](O)C[C@@H]2[C@@]4(C)CC[C@H](O)C(C)(C)[C@@H]4[C@H](O)C[C@]23C)O1
cell viability [1]: 0.997 | cell viability [2]: 0.941

O=[N+]([O-])c1ccc(O)c2ncccc12
cell viability [1]: 0.722 | cell viability [2]: 0.631

O=C(O)CCCCCCCCCCCCCCC(=O)O
cell viability [1]: 1.35 | cell viability [2]: 0.659

Cc1cc(C)n(C)n1
cell viability [1]: 0.928 | cell viability [2]: 1.1

CNC(C)C1CCC(N)C(OC2C(N)CC(N)C(OC3OCC(C)(O)C(NC)C3O)C2O)O1 (configuration not stated)
cell viability [1]: 1.17 | cell viability [2]: 0.847

O=c1c(-c2ccc(O)cc2)coc2cc(O)ccc12
cell viability [1]: 0.979 | cell viability [2]: 0.825

Cc1coc2c1C(=O)C(=O)c1c-2ccc2c(C)cccc12
cell viability [1]: 0.998 | cell viability [2]: 0.414

COC1=C(OC)C(=O)C(CCCCCCCCCCO)=C(C)C1=O
cell viability [1]: 0.933 | cell viability [2]: 0.939

CCCCCCCC(=O)O
cell viability [1]: 0.996 | cell viability [2]: 0.956

C/C1=C/CC[C@H](C)C(=O)C[C@@H](C(C)C)C(=O)C1
cell viability [1]: 1.33 | cell viability [2]: 1.13

O=C(O)C(O)Cc1ccc(O)c(O)c1 (configuration not stated)
cell viability [1]: 1.41 | cell viability [2]: 0.942

CC(=O)N1C[C@H](O)C[C@H]1C(=O)O
cell viability [1]: 0.925 | cell viability [2]: 0.973

O=C(O)/C=C/c1cccc(O)c1
cell viability [1]: 1.08 | cell viability [2]: 0.976

COc1ccc(CCC(=O)c2c(O)cc(OC3OC(CO)C(O)C(O)C3OC3OC(C)C(O)C(O)C3O)cc2O)cc1O (configuration not stated)
cell viability [1]: 1.19 | cell viability [2]: 1.13

O.O.O.O.O=C([O-])CC(O)(CC(=O)[O-])C(=O)[O-].[Li+].[Li+].[Li+]
cell viability [1]: 1.05 | cell viability [2]: 0.831

C[C@H]1O[C@@H](O[C@H]2CC[C@@]3(C)[C@@H](CC[C@]4(C)[C@@H]3C=C[C@]35OC[C@@]6(CCC(C)(C)C[C@H]63)[C@H](O)C[C@]54C)[C@]2(C)CO)[C@H](O)[C@@H](O[C@@H]2O[C@H](CO)[C@@H](O)[C@H](O)[C@H]2O)[C@H]1O
cell viability [1]: 0.304 | cell viability [2]: 0.538

CC[C@H]1OC(=O)[C@H](C)[C@@H](O[C@H]2C[C@@](C)(OC)[C@@H](O)[C@H](C)O2)[C@H](C)[C@@H](O[C@@H]2O[C@H](C)C[C@H](N(C)C)[C@H]2O)[C@](C)(O)C[C@@H](C)[C@@H]2N[C@@H](COCCOC)O[C@H]([C@H]2C)[C@]1(C)O
cell viability [1]: 1.03 | cell viability [2]: 0.954

CC(=O)N[C@@H](CCC(=O)O)C(=O)O
cell viability [1]: 1.04 | cell viability [2]: 0.903

O=C(C=Cc1ccc(O)c(O)c1)O[C@H]1[C@H](O)C[C@](O)(C(=O)O)C[C@H]1OC(=O)C=Cc1ccc(O)c(O)c1
cell viability [1]: 1 | cell viability [2]: 0.871

COc1cc(-c2oc3cc(O)cc(O)c3c(=O)c2O)ccc1O
cell viability [1]: 2.23 | cell viability [2]: 0.883

CCCCN1C[C@H](O)[C@@H](O)[C@H](O)[C@H]1CO
cell viability [1]: 0.724 | cell viability [2]: 0.944

O=c1ccc2cc(O)c(O)cc2o1
cell viability [1]: 0.88 | cell viability [2]: 0.865

C[C@@H]1O[C@@H](O[C@@H]2[C@@H](O)[C@H](OCCc3ccc(O)c(O)c3)O[C@H](CO)[C@H]2OC(=O)/C=C/c2ccc(O)c(O)c2)[C@H](O)[C@H](O)[C@H]1O
cell viability [1]: 0.783 | cell viability [2]: 0.954

COc1cc(OC)cc(OC)c1
cell viability [1]: 1.27 | cell viability [2]: 0.961

C[C@@H](O)CC(=O)O
cell viability [1]: 0.903 and 1.25 | cell viability [2]: 0.977 and 1.01

O=C1O[C@H]([C@@H](O)CO)C(O)=C1O
cell viability [1]: 1.14 | cell viability [2]: 0.945

O=c1oc2cc(O)ccc2c2ccc(O)cc12
cell viability [1]: 0.889 | cell viability [2]: 0.996

C=C1CC[C@@H]2[C@](C)(CO)[C@H](O)CC[C@@]2(C)[C@H]1C/C=C1\C=COC1=O
cell viability [1]: 1.84 | cell viability [2]: 1

O=C(O)/C=C(/CC(=O)O)C(=O)O
cell viability [1]: 0.865 | cell viability [2]: 0.998
